According to article PMC10272277:
These are yes or no findings as the source states them, for the method shown. Binding seen in cells or lysates may run through a third protein. Some binding calls cover weakened binding; strength is not graded here. For some assays here: Tags and fused reporters may be left off the sequences shown.

Chains of the proteins cited; added tags and fusions are not shown. Residues count along the entry.
UniProt P37173, residues 23-567: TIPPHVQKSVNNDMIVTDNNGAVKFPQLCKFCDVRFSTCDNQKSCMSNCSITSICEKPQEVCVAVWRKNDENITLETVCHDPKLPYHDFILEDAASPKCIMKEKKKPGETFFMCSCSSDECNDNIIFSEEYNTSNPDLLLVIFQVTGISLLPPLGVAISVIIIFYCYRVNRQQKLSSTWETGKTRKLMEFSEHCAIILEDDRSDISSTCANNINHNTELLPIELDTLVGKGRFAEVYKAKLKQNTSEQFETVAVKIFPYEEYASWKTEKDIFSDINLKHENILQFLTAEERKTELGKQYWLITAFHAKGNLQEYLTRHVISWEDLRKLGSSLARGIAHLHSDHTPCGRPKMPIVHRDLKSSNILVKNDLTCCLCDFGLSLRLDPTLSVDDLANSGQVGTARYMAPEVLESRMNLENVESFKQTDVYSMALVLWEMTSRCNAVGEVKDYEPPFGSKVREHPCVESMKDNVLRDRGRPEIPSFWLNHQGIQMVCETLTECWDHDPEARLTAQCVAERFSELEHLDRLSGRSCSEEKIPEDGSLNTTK

Assays:
[1] = biological target: T1, USP33 (luciferase complementation construct) (UniProt Q8TEY7); experiment: split reporter; luciferase complementation assay of USP33 with candidate target proteins; no methods given
T1 sequence: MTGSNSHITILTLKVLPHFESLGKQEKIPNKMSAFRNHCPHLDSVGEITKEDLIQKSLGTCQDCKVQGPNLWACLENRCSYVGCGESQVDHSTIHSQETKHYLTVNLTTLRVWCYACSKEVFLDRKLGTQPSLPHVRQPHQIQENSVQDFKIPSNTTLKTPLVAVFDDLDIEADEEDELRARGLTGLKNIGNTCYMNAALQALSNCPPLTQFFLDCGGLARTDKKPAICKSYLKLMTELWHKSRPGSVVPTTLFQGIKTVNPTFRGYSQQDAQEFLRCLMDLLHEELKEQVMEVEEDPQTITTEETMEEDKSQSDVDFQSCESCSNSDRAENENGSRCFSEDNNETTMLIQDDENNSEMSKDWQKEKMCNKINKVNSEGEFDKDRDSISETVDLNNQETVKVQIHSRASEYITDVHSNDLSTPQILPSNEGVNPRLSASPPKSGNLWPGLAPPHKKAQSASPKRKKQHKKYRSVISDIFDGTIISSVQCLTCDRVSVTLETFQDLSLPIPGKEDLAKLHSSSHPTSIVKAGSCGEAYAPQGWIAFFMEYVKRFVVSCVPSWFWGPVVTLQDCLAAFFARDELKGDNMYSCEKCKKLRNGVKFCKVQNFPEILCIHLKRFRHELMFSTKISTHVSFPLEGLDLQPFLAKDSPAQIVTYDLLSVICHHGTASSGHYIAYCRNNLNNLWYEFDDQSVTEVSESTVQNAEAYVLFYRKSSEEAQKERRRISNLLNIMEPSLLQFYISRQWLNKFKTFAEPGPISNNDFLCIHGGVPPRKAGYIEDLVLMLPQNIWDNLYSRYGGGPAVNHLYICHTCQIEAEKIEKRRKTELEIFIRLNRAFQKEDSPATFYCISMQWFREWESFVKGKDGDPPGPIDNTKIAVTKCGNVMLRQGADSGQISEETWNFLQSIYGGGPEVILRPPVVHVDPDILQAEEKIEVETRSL

USP33 = biological target: T2, USP33 (UniProt Q8TEY7); experiment: co-IP; PC cells transfected with corresponding plasmids, NP40 lysis buffer, overnight at 4 °C with IP antibody or isotype IgG, protein A/G magnetic beads, Western blot
T2 sequence: T1 sequence

binding [1]	binding (USP33)	Substance
binds	–	TGFBR2 (luciferase complementation construct) (from UniProt P37173 23-567) (receptor)
–	binds	TGFBR2 (from UniProt P37173 23-567) (receptor)
